Assay results as given in PubChem BioAssay AID248 (DTP/NCI, 2004).
The list shows only some results of the screen, not a fair sample: it gathers tests that were run many times, whatever their T/C, doses with no T/C, and many T/C values between a quarter and a half above the control. Further doses and runs are listed elsewhere. T/C: endpoint of the treated group in % of that of the vehicle group. Some doses have a count of surviving animals in place of a T/C: the source holds a T/C of zero for them, seemingly a mark for toxic or unscored doses. Some survivor counts are full or nearly so, which does not show that the dose was tolerated: the source hardly ever lists a survival T/C far under the control, and the zero likely stands for such cases as well. Counts of survivors are from the toxicity check (mostly the fifth day) where no day follows; animals may have died later. Schedules are NCI's codes, read here as Q, the interval in days (D) or hours (H), X, the number of doses. Some entries were tested several times; their values stand side by side, smallest first. Some molecules as drawn cover several salts, stereoisomers or complexes of the source; a dose is that of the sample tested. For survival time, this PubChem deposit counts one and a half times the control or more as active, and values a quarter to a half above the control carry no call in these data; other NCI protocols may use other cut-offs. Some schedules carry Z or #; the key to these is not given. Some T/C values carry the count of animals alive at the toxicity check (mostly the fifth day); where none is given, no animal had died by that day.

System: L1210 leukemia ip in BDF1 mice, survival T/C
Assay: NCI In Vivo Anticancer Drug Screen. Data for tumor model L1210 Leukemia (intraperitoneal) in B6D2F1 (BDF1) mice
Conditions: T/C endpoint: mean survival time, higher T/C = longer survival
[1] = dose: 8.0 mg/kg/injection, schedule: Q01DX009 (ip), vehicle: saline
[2] = dose: 200.0 mg/kg/injection, schedule: Q04DX003 (ip), vehicle: saline
[3] = dose: 400.0 mg/kg/injection, schedule: Q04DX003 (ip), vehicle: saline
[4] = dose: 50.0 mg/kg/injection, schedule: Q01DX009 (ip), vehicle: Klucel (hydroxypropylcellulose) (HPC)
[5] = dose: 100.0 mg/kg/injection, schedule: Q04DX003 (ip), vehicle: Klucel (hydroxypropylcellulose) (HPC)
[6] = dose: 400.0 mg/kg/injection, schedule: Q04DX003 (ip), vehicle: Klucel (hydroxypropylcellulose) (HPC)
[7] = dose: 400.0 mg/kg/injection, schedule: Q04DX002 (ip), vehicle: Klucel (hydroxypropylcellulose) (HPC)

## Nc1nc(N)c2c(Cl)c(CNc3ccc(C(=O)NC(CCCC(=O)O)C(=O)O)cc3)ccc2n1 (centres undefined)
dose: 0.5 mg/kg/injection, schedule: Q01DX009 (ip), vehicle: saline
  T/C: 128 % of control
dose: 1.0 mg/kg/injection, schedule: Q01DX009 (ip), vehicle: saline
  T/C: 141 % of control
[1]
  T/C: 149 % of control
  survivor count: 6 of 6
dose: 8.0 mg/kg/injection, schedule: Q04DX003 (ip), vehicle: saline
  T/C: 126 % of control [5 of 6 alive]
dose: 12.0 mg/kg/injection, schedule: Q01DX009 (ip), vehicle: saline
  survivor count: 6 of 6
dose: 16.0 mg/kg/injection, schedule: Q01DX009 (ip), vehicle: saline
  survivor count: 6 of 6
dose: 16.0 mg/kg/injection, schedule: Q04DX003 (ip), vehicle: saline
  T/C: 125 % of control
dose: 32.0 mg/kg/injection, schedule: Q04DX003 (ip), vehicle: saline
  T/C: 142 % of control
dose: 64.0 mg/kg/injection, schedule: Q04DX003 (ip), vehicle: saline
  survivor count: 4 of 6
dose: 128.0 mg/kg/injection, schedule: Q04DX003 (ip), vehicle: saline
  survivor count: 4 of 6

## O=Nc1ccc(O)cc1Br
dose: 100.0 mg/kg/injection, schedule: Q01DX001 (ip), vehicle: Klucel (hydroxypropylcellulose) (HPC)
  survivor count: 3 of 3
dose: 200.0 mg/kg/injection, schedule: Q01DX001 (ip), vehicle: Klucel (hydroxypropylcellulose) (HPC)
  survivor count: 3 of 3

## CC(Cc1ccccc1)NN (centres undefined)
dose: 31.25 mg/kg/injection, schedule: Q01DX009 (ip), vehicle: saline
  survivor count: 5 of 6
dose: 62.5 mg/kg/injection, schedule: Q01DX009 (ip), vehicle: saline
  survivor count: 0 of 6
dose: 125.0 mg/kg/injection, schedule: Q04DX003 (ip), vehicle: saline
  survivor count: 3 of 4
dose: 250.0 mg/kg/injection, schedule: Q04DX003 (ip), vehicle: saline
  survivor count: 0 of 4

## CN=C(NC)NCc1ccccc1
dose: 200.0 mg/kg/injection, schedule: Q01DX001 (ip), vehicle: saline
  survivor count: 1 of 4
dose: 400.0 mg/kg/injection, schedule: Q01DX001 (ip), vehicle: saline
  survivor count: 0 of 4

## BrCCN(CCBr)c1ccc2c3c(cccc13)-c1ccccc1-2
dose: 1.5 mg/kg/injection, schedule: Q01DX Z (ip), vehicle: other
  T/C: 131 % of control
dose: 2.0 mg/kg/injection, schedule: Q01DX Z (ip), vehicle: other
  T/C: 131 % of control
dose: 3.0 mg/kg/injection, schedule: Q01DX Z (ip), vehicle: other
  T/C: 133 % of control
dose: 3.2 mg/kg/injection, schedule: Q01DX Z (ip), vehicle: other
  T/C: 140 % of control
dose: 5.0 mg/kg/injection, schedule: Q01DX Z (ip), vehicle: other
  T/C: 127 and 134 % of control
dose: 12.5 mg/kg/injection, schedule: Q01DX009 (ip), vehicle: acetone
  survivor count: 6 of 6
dose: 25.0 mg/kg/injection, schedule: Q01DX009 (ip), vehicle: acetone
  survivor count: 1 of 6
dose: 50.0 mg/kg/injection, schedule: Q01DX009 (ip), vehicle: saline
  survivor count: 6 of 6
dose: 100.0 mg/kg/injection, schedule: Q01DX009 (ip), vehicle: saline
  survivor count: 3 of 6
dose: 200.0 mg/kg/injection, schedule: Q01DX009 (ip), vehicle: saline
  survivor count: 1 of 6
[2]
  survivor count: 4 of 6
[3]
  survivor count: 1 of 6

## C/C=C/C=C\COC(=O)C1CC1
dose: 400.0 mg/kg/injection, schedule: Q04DX002 (ip), vehicle: saline
  survivor count: 1 of 3

## O=C(NCCCl)Nc1ccc2c3c(cccc13)CC2
[4]
  survivor count: 6 of 6
[5]
  survivor count: 4 of 6
dose: 200.0 mg/kg/injection, schedule: Q01DX009 (ip), vehicle: Klucel (hydroxypropylcellulose) (HPC)
  survivor count: 0 of 6
[6]
  survivor count: 3 of 6

## CC(Br)c1ccc(S(=O)(=O)F)cc1 (centres undefined)
dose: 400.0 mg/kg/injection, schedule: Q04DX002 (ip), vehicle: saline with Tween-80
  survivor count: 3 of 3

## Cc1ccc(C(=O)c2ccccc2)c(C)c1
dose: 200.0 mg/kg/injection, schedule: Q01DX001 (ip), vehicle: carboxymethylcellulose (CMC)
  survivor count: 4 of 4

## O=C(CI)Nc1ccc(Br)cc1
dose: 55.0 mg/kg/injection, schedule: Q01DX009 (ip), vehicle: Klucel (hydroxypropylcellulose) (HPC)
  survivor count: 2 of 6
dose: 80.0 mg/kg/injection, schedule: Q01DX009 (ip), vehicle: Klucel (hydroxypropylcellulose) (HPC)
  survivor count: 0 of 6

## C=CC[n+]1ccccc1Cc1ccccc1
dose: 50.0 mg/kg/injection, schedule: Q04DX003 (ip), vehicle: saline
  survivor count: 6 of 6
dose: 100.0 mg/kg/injection, schedule: Q01DX001 (ip), vehicle: saline with Tween-80
  survivor count: 0 of 3
dose: 100.0 mg/kg/injection, schedule: Q04DX003 (ip), vehicle: saline
  survivor count: 0 of 1
dose: 200.0 mg/kg/injection, schedule: Q01DX001 (ip), vehicle: saline with Tween-80
  survivor count: 0 of 3
[2]
  survivor count: 0 of 6
dose: 400.0 mg/kg/injection, schedule: Q01DX001 (ip), vehicle: saline with Tween-80
  survivor count: 0 of 3
[3]
  survivor count: 0 of 6

## c1ccc(CCNc2ccnc3ccccc23)cc1
[4]
  survivor count: 3 of 6
[5]
  survivor count: 0 of 6
dose: 200.0 mg/kg/injection, schedule: Q04DX003 (ip), vehicle: Klucel (hydroxypropylcellulose) (HPC)
  survivor count: 3 of 6
[6]
  survivor count: 0 of 6

## NC(CS(=O)(=O)O)=NCC12CC3CC(CC(C3)C1)C2
dose: 100.0 mg/kg/injection, schedule: Q04DX002 (ip), vehicle: Klucel (hydroxypropylcellulose) (HPC)
  survivor count: 0 of 3
dose: 200.0 mg/kg/injection, schedule: Q04DX002 (ip), vehicle: Klucel (hydroxypropylcellulose) (HPC)
  survivor count: 0 of 3
[7]
  survivor count: 0 of 3

## Cc1ccc(S(=O)(=O)O/C=C2\CCOC2=O)cc1
[7]
  survivor count: 2 of 3

## ClC1=C(Cl)C2(Cl)C3C4CC(C(I)C4I)C3C1(Cl)C2(Cl)Cl (centres undefined)
dose: 300.0 mg/kg/injection, schedule: Q01DX001 (ip), vehicle: other
  survivor count: 1 of 6

## CN1CCCC(CC2c3ccccc3Sc3ccccc32)C1 (centres undefined)
dose: 64.0 mg/kg/injection, schedule: Q01DX015 (ip), vehicle: carboxymethylcellulose (CMC)
  survivor count: 4 of 6

## Cc1n(-c2ccccc2)c2c([n+]1Cc1ccc([N+](=O)[O-])cc1)C(=O)c1ccccc1C2=O
dose: 80.0 mg/kg/injection, schedule: Q01DX001 (ip), vehicle: other
  survivor count: 1 of 4
dose: 100.0 mg/kg/injection, schedule: Q01DX001 (ip), vehicle: other
  survivor count: 0 of 4
dose: 200.0 mg/kg/injection, schedule: Q01DX001 (ip), vehicle: other
  survivor count: 0 of 4
dose: 400.0 mg/kg/injection, schedule: Q01DX001 (ip), vehicle: other
  survivor count: 0 of 4

## O=C(O)/C=C\C(=O)Nc1ccc(O)cc1
dose: 300.0 mg/kg/injection, schedule: Q01DX Z (ip), vehicle: saline
  T/C: 136 % of control

## O=C1CC2CC1C1C3CCC(CC3)C21 (centres undefined)
dose: 50.0 mg/kg/injection, schedule: Q01DX009 (ip), vehicle: saline with Tween-80
  survivor count: 2 of 3
dose: 100.0 mg/kg/injection, schedule: Q01DX009 (ip), vehicle: saline with Tween-80
  survivor count: 0 of 3
dose: 200.0 mg/kg/injection, schedule: Q01DX009 (ip), vehicle: saline with Tween-80
  survivor count: 0 of 3

## O=C1C=C2CCN(Cc3ccccc3)CC2CC1 (centres undefined)
[3]
  survivor count: 5 of 6

## CCCCCCCCCCCCCCCCCCNC(=O)NCCN(C)c1ccccc1
dose: 200.0 mg/kg/injection, schedule: Q01DX009 (ip), vehicle: carboxymethylcellulose (CMC)
  survivor count: 3 of 3
dose: 400.0 mg/kg/injection, schedule: Q01DX009 (ip), vehicle: carboxymethylcellulose (CMC)
  survivor count: 3 of 3 and 6 of 6

## CCc1c(C)nnn1-c1ccccc1
dose: 300.0 mg/kg/injection, schedule: Q01DX001 (ip), vehicle: saline
  survivor count: 3 of 6
